At least one structure is not confirmed: it was looked up by name or label, or the drawing left a doubt.
Experiments:
Assay type in all cases: cell-based, Fischer rats
[1] = tested on: bone marrow-derived mesenchymal stem cells; assay: Immunocytochemical staining of nerve cell markers Tuj1 and NSE; settings: 2 μM retinoic acid, positive control; FIG. 7
[2] = tested on: bone marrow-derived mesenchymal stem cells; assay: Neuronal differentiation, inverted microscope morphology; settings: 2 μM retinoic acid, positive control; FIG. 3A
Protocol: (§1) Bone marrow-derived mesenchymal stem cells subcultured for 5 generations were distributed on a well plate. One day later, the cells were treated with DMEM containing 20% FBS and 10 ng/mL b-FGF for a day, so that the cells could proliferate sufficiently. In order to induce differentiation into nerve cells, the cells were treated with differentiation medium containing the small molecules listed in Table 1. The small molecules were used after being dissolved in DMSO (Sigma, USA). The concentration of DMSO was less than 2% of the entire culture medium, and was diluted so that the small molecules were included with a concentration in the range from 1 μM to 100 μM. As negative control, DMEM containing 10% FBS and 1% penicillin-streptomycin was used. And, retinoic acid as positive control, which is a well-known inducer of differentiation into nerve cells, was used after being diluted to 2 μM in DMEM. Differentiation of muscle-derived stem cells and adipose-derived stem cells into nerve cells was induced similarly as in the bone marrow-derived stem cells.

[3] = tested on: adipose-derived stem cells; assay: as above; settings: 2 μM retinoic acid, positive control; FIG. 3C
Protocol: as §1

[4] = tested on: muscle-derived stem cells; assay: as above; settings: 2 μM retinoic acid, positive control; FIG. 3B
Protocol: as §1

## CC1=C(/C=C/C(C)=C/C=C/C(C)=C/C(=O)O)C(C)(C)CCC1 [retinoic acid, reference compound]
[1]
  expression of nerve cell markers Tuj1 and NSE: The same result was attained
[2]
  differentiation (inverted microscopic images): differentiated
[3]
  differentiation (inverted microscopic images): differentiated
[4]
  differentiation (inverted microscopic images): differentiated

From US20090136461A1, “Neuronal differentiation method of adult stem cells using small molecules” (priority 2007, published 2009)
